Measurements published in PMC6744478.
No constants are given. Whether binding was seen depends on the method and setting. For some assays here: Binding seen in cells or lysates may run through a third protein. Some results given as binding are weak or reduced against the parent protein; the word gives no strength.

By UniProt entry, the sequences of proteins in these tests, tags left out. Where a name states a change or a piece, a line headed by the entry shows the natural chain unless it says otherwise. Chains listed by the source or under a name are the forms on record and can include a tag or linker.
UniProt Q6MZT1: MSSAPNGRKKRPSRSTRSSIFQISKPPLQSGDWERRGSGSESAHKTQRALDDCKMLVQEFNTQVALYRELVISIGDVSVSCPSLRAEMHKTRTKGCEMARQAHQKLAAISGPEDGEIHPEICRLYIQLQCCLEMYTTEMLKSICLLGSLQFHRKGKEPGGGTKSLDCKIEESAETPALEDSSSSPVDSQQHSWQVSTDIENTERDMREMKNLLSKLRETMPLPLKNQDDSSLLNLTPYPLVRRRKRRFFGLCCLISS
R7BP-HIS (Q6MZT1, form named): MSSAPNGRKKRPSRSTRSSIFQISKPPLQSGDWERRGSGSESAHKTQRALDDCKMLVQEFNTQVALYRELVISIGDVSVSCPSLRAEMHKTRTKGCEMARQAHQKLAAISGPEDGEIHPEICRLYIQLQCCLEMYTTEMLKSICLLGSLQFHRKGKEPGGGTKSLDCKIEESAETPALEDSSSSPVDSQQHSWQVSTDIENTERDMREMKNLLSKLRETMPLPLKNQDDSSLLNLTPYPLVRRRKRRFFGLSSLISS
UniProt O94810: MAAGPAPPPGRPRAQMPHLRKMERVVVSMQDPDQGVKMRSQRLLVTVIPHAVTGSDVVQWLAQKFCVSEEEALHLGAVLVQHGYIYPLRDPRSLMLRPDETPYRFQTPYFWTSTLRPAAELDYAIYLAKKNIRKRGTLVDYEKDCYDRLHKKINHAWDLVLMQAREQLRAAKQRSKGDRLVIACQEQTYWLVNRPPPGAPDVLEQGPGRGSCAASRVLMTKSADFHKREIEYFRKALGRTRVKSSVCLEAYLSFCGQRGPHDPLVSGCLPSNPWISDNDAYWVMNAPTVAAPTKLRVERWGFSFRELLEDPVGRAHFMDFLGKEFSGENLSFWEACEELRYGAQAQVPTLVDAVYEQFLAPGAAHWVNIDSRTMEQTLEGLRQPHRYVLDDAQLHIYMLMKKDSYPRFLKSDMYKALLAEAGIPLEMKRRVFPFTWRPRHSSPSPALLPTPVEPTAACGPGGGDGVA

Experiments:
[1] = target: T1, RGS7/TS-Gβ5 duplex (human) (UniProt P49802+O14775); assay: pull-down; Expi293 cells co-transfected with RGS7, TS-Gβ5, R7BP-HIS and either WDR61 (sample A) or R7BPΔNC (sample B); lysate on MagStrep type3 XT beads, 4 °C, one hour; Western blot with anti-Gβ5 and anti-R7BP, bands quantified
T1 sequence 1: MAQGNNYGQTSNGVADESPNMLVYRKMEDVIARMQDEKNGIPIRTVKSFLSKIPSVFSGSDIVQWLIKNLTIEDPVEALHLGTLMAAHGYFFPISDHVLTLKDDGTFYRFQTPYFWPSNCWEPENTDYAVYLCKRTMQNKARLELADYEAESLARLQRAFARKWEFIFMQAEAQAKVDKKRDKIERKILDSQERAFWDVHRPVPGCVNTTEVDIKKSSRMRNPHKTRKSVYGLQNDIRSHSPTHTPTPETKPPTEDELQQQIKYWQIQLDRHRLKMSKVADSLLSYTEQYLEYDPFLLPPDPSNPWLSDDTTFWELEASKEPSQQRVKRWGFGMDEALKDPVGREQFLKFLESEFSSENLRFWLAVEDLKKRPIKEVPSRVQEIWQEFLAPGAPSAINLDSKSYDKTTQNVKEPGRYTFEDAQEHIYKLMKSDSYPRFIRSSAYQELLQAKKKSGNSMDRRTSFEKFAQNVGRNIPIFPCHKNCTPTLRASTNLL
T1 sequence 2: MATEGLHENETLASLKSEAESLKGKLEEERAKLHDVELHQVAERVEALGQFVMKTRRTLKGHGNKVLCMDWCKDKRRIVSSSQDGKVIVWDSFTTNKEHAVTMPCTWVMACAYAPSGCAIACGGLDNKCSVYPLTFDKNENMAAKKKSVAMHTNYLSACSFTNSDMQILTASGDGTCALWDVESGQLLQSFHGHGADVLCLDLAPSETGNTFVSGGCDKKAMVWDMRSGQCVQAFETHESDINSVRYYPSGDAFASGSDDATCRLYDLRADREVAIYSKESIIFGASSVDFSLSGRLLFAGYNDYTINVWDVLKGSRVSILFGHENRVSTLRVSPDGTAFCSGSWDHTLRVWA

[2] = target: Gβ5 (GNB5, short form), N-terminally tagged (human) (UniProt O14775); assay: co-purification; R7-RGS protein expressed with N-terminally HIS- or TS-tagged Gβ5 in Expi293 cells; duplex purified on HisTrap HP or StrepTrap HP (washes with ATP/MgCl2 and 4.5 M NaCl), SEC if needed

binding [1]	binding [2]	Substance
binds		R7BP-HIS (from UniProt Q6MZT1 1-257)
	binds	RGS11 (from UniProt O94810 1-467)
